# According to article PMC7819943, “Rice protein-binding microarrays: a tool to detect cis-acting elements near promoter regions in rice”:
# Sequences of proteins named here, by UniProt entry; tags and fusion partners are left off.
# UniProt Q0JBA9, entry or part of it: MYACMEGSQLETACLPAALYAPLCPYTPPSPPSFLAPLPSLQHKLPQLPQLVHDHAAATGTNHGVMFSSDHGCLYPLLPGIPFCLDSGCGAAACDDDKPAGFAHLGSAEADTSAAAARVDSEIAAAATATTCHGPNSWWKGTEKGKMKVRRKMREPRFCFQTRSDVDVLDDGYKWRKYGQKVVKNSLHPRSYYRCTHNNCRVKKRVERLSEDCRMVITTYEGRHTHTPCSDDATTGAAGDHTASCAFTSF
# Some of the results follow.
# Molecular target: OsWRKY34 (Oryza sativa, UniProt Q0JBA9 1-250)
# Experiment: protein-binding microarray (RPBM); PBS, 2% BSA, 51.3 ng/ul salmon testes DNA, 50 uM zinc acetate, 200 nM TF, 25 C, 1 h; high values mean tight binding
# Conditions: protein: recombinant; tags: N-terminal polyhistidine and DsRed monomer fusion (pET32a); label: CyDye5-dUTP incorporated in the synthesized complementary strand; 3' TTTTT single-stranded linker to array surface; dsDNA, one strand shown
# In short: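 Transcription factors, each fused N-terminally to a polyhistidine tag and DsRed, were expressed in E. coli BL21-CodonPlus and purified on Ni–NTA. A custom Agilent array was made double-stranded by primer extension with Cy5-dUTP and blocked with 2% BSA. It was incubated with 200 nM protein in PBS, 2% BSA, salmon testes DNA and 50 µM zinc acetate at 25 °C for 1 h, then washed. The binding signal is per-feature fluorescence intensity (arbitrary units) read on an Axon 4000B scanner.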
row,Sequence,binding signal
1,GTATTTTGTGCCAATTGACTTCTTGTTAGTTTATTATAATCGGAGTCACCTAGTGCAG,11500 fluorescence intensity (a.u.)
2,GCGATCTTTAGTCCCGGATTGGTACTCCCGGTTTGGAAACCGGAGTCACCTAGTGCAG,8920 fluorescence intensity (a.u.)
3,GCATAGATTTTTAGAGGTTTTTTGTGGAATCATCTTTTGTCGGAGTCACCTAGTGCAG,9230 fluorescence intensity (a.u.)
4,CCGACCGTTTTCATCCCGACTCCATCCAATCCGCTAGTTGCGGAGTCACCTAGTGCAG,8920 fluorescence intensity (a.u.)
5,CGTTGACTTTTTAAAATATATTTGACCGTTCGTCTTATTCCGGAGTCACCTAGTGCAG,24100 fluorescence intensity (a.u.)
6,TGACATGTGGGGTTCTAGGAATAGGCGTGTATCTAACAAGCGGAGTCACCTAGTGCAG,9320 fluorescence intensity (a.u.)
7,GCAGTGACTTCCACTTCCTGTACGTAACTTTCCATATGCCCGGAGTCACCTAGTGCAG,10000 fluorescence intensity (a.u.)
8,TTTCCACACGTCGCGATCCCTCACCCAACCATGCAAAAGTCGGAGTCACCTAGTGCAG,12600 fluorescence intensity (a.u.)
9,GAACGGAGGCGCTTTATACTTCTCTTCGCCTTGTCAAATTCGGAGTCACCTAGTGCAG,9770 fluorescence intensity (a.u.)
10,TCTTGGTCAAATTTGTTCTTCATCTTTGATCAATTCAGTTCGGAGTCACCTAGTGCAG,11900 fluorescence intensity (a.u.)
11,ATGGTGGGTGCATCACTGCTGGTCTTGGTTTCGTCAGCGCCGGAGTCACCTAGTGCAG,11500 fluorescence intensity (a.u.)
12,ATCATCTCCTCTCGGTCCATCACAACACCTCCGCCTCCCACGGAGTCACCTAGTGCAG,8080 fluorescence intensity (a.u.)
13,GCCCTGCGTCACACGGCATTCTTGTCCCGTATCCGCGCCCCGGAGTCACCTAGTGCAG,8430 fluorescence intensity (a.u.)
14,GCACTCTGCATCCGCTATACATTATTGTTCTGCTTTACTCCGGAGTCACCTAGTGCAG,10100 fluorescence intensity (a.u.)
15,TTTTTTCTCCGGCTTATATGGATAGTATCGATTCCCCTGTCGGAGTCACCTAGTGCAG,9310 fluorescence intensity (a.u.)
16,CCTCTGGTTGTCGGAGCCTCATCAATCTCACTCATTCTCACGGAGTCACCTAGTGCAG,9280 fluorescence intensity (a.u.)
17,GCTGATGAAACTGATCCATACCGTACCGTACCATTGCCAACGGAGTCACCTAGTGCAG,10100 fluorescence intensity (a.u.)
18,CGGTTTCGTTTGAGATTTTTTTTTGGTGGTTTTGATTTCGCGGAGTCACCTAGTGCAG,8640 fluorescence intensity (a.u.)
19,GGGTGGCGTCCTGTTGTCATCTTTTATCCCTCTTGAATTCCGGAGTCACCTAGTGCAG,21500 fluorescence intensity (a.u.)
20,ACGGGGCGCATTTATTCATCCCCACCTTTGTTCATCAGTTCGGAGTCACCTAGTGCAG,11600 fluorescence intensity (a.u.)
21,AGGGAGAGGATTCCCGGCGAGCCGGCGGGCGGGCGGGATACGGAGTCACCTAGTGCAG,10300 fluorescence intensity (a.u.)
22,GCCCTTCCTCTCCTCACTCACACTGCCCTGTTCATCTCTTCGGAGTCACCTAGTGCAG,8540 fluorescence intensity (a.u.)
23,CCTACGTGTGAAATCAACCACTCTTATCCCATCCGTCCATCGGAGTCACCTAGTGCAG,8990 fluorescence intensity (a.u.)
24,ATATATGCAGAGGCATGATGCCTGCTGGGCACTCTCTGAACGGAGTCACCTAGTGCAG,8690 fluorescence intensity (a.u.)
25,CATTGTTTTCTAATATTCGGCCATGGCTTTTGACATTTTACGGAGTCACCTAGTGCAG,8430 fluorescence intensity (a.u.)
26,ATACTACCTGAGTACAGGGTGGGGTGCTGTTGCTGCGTGCCGGAGTCACCTAGTGCAG,9150 fluorescence intensity (a.u.)
27,GTACATTCACGTTCCGCCCAACTACCCCTTGTTTGAACCTCGGAGTCACCTAGTGCAG,9650 fluorescence intensity (a.u.)

row,Sequence,binding signal
1,CATCTCTATTCTTAAACCCCGTTCATGTAGTTCACAACATCGGAGTCACCTAGTGCAG,10200 fluorescence intensity (a.u.)
2,GCAACATCACCGTTTTTCTCTACTATCTTAGGTTGTGTTCCGGAGTCACCTAGTGCAG,8670 fluorescence intensity (a.u.)
3,TAACAAATATCGTGTGTTTCTGTATCGTCATCTGCTGTATCGGAGTCACCTAGTGCAG,8120 fluorescence intensity (a.u.)
4,AGTGTAAAGCTTAGTTTAAGGGGTTTTATTTATTCCGATACGGAGTCACCTAGTGCAG,8490 fluorescence intensity (a.u.)
5,CCGCGTCCTCCCTTTGCCTTTGCCGCTATCCTCTCGGTCGCGGAGTCACCTAGTGCAG,8700 fluorescence intensity (a.u.)
6,TTCCACTTGATTTCGTGAAATTTCGAATTTCACCGGTGCTCGGAGTCACCTAGTGCAG,8310 fluorescence intensity (a.u.)
7,TATATATATATGTGGTGGGTTTTATCAAGATTCTTCCATTCGGAGTCACCTAGTGCAG,9470 fluorescence intensity (a.u.)
8,ACAAACTTCTGACTTTTTTATCACAACGTTCCAATTTCAACGGAGTCACCTAGTGCAG,9580 fluorescence intensity (a.u.)
9,AGCATTTAGTCACCAGCGCTTTGGATGCTTTACCTCTTTACGGAGTCACCTAGTGCAG,11600 fluorescence intensity (a.u.)
10,TGACGTTTGCTCTGACGCGTTTTTCTGTAGTTATTATCACCGGAGTCACCTAGTGCAG,10100 fluorescence intensity (a.u.)
11,TTTTCGCAGCCTTAGGTTTACGTTCAGTATTTTGTATTGCCGGAGTCACCTAGTGCAG,9680 fluorescence intensity (a.u.)
12,GTTTTTCCACCGGTTTTTCATCTGCGCGCCGTACCTCTGCCGGAGTCACCTAGTGCAG,9300 fluorescence intensity (a.u.)
13,CCGTAGTAGCCTTGTTAGCTAAGCAAAAGCCCACGCGCGACGGAGTCACCTAGTGCAG,8340 fluorescence intensity (a.u.)
14,CACAGCCGCCTACCTTGCTCCAATATATAAGAACTTGAAACGGAGTCACCTAGTGCAG,9600 fluorescence intensity (a.u.)
15,ACCACATCCTTCTTCTTCCTGTCTCACGCCTCAAAAACTTCGGAGTCACCTAGTGCAG,15600 fluorescence intensity (a.u.)
16,GTGCAGGTTTGGCCATAATCATTTTTTGCTGCTATATGTTCGGAGTCACCTAGTGCAG,8970 fluorescence intensity (a.u.)
17,ACTACTTTCTGCGAACTTCTGATCGACCATTGCAGAATCCCGGAGTCACCTAGTGCAG,8840 fluorescence intensity (a.u.)
18,TCAGATTTAAGCCAAGCATGTGTTATTGTATAATGGTTTCCGGAGTCACCTAGTGCAG,8790 fluorescence intensity (a.u.)
19,TCTCTCCTATAGTGGTCATCAATTGTTTGTTTTGAGTAAACGGAGTCACCTAGTGCAG,11000 fluorescence intensity (a.u.)
20,CACGTACTAACTGGCGGGGTTGTGTCATCTTGTCTATGGTCGGAGTCACCTAGTGCAG,8500 fluorescence intensity (a.u.)
21,TCGATTTCCTCTTGTCTTATATCGCTCTCTTTTTCTCGGTCGGAGTCACCTAGTGCAG,9800 fluorescence intensity (a.u.)
22,CTTTTTTGCAAAAAGTCAGGCCGCCATCAACACCATCTCGCGGAGTCACCTAGTGCAG,8590 fluorescence intensity (a.u.)
23,CCGGACTCCTCTCACCTGCTGCTTTCTTCTCATAAAGAACCGGAGTCACCTAGTGCAG,8660 fluorescence intensity (a.u.)
24,GCCGTTCGCCACCACGCCTACTTCGCCGGCTGCCCTCGCCCGGAGTCACCTAGTGCAG,9290 fluorescence intensity (a.u.)
25,CTATTTTCTTTTTCTTTCTTTCTTTCTTTTTCTTTGTATACGGAGTCACCTAGTGCAG,12100 fluorescence intensity (a.u.)
26,CAGTTGTCTTCTATGATTTGTGTCTTCAATTAGCATCTACCGGAGTCACCTAGTGCAG,9350 fluorescence intensity (a.u.)
27,CGAGGTATTTCAGTCCAATGCAGCAAAGATTCGTTTTTTCCGGAGTCACCTAGTGCAG,10100 fluorescence intensity (a.u.)

# Another view of part of the listing above:
row	Sequence	binding signal
19	TCTCTCCTATAGTGGTCATCAATTGTTTGTTTTGAGTAAACGGAGTCACCTAGTGCAG	11000 fluorescence intensity (a.u.)
20	CACGTACTAACTGGCGGGGTTGTGTCATCTTGTCTATGGTCGGAGTCACCTAGTGCAG	8500 fluorescence intensity (a.u.)
